Assay results published in patent US20080125424A1, “Derivatives of urea and related diamines, methods for their manufacture, and uses therefor” (priority 2006, published 2008).
pEC50: −log10 of the molar value. Some entries share one result that the patent states for a list of compounds.

Target: T1, Human Ca2+ receptor (Homo sapiens, UniProt P41180)
T1 construct: expressed in transfected cells
T1 sequence (P41180 20-1078): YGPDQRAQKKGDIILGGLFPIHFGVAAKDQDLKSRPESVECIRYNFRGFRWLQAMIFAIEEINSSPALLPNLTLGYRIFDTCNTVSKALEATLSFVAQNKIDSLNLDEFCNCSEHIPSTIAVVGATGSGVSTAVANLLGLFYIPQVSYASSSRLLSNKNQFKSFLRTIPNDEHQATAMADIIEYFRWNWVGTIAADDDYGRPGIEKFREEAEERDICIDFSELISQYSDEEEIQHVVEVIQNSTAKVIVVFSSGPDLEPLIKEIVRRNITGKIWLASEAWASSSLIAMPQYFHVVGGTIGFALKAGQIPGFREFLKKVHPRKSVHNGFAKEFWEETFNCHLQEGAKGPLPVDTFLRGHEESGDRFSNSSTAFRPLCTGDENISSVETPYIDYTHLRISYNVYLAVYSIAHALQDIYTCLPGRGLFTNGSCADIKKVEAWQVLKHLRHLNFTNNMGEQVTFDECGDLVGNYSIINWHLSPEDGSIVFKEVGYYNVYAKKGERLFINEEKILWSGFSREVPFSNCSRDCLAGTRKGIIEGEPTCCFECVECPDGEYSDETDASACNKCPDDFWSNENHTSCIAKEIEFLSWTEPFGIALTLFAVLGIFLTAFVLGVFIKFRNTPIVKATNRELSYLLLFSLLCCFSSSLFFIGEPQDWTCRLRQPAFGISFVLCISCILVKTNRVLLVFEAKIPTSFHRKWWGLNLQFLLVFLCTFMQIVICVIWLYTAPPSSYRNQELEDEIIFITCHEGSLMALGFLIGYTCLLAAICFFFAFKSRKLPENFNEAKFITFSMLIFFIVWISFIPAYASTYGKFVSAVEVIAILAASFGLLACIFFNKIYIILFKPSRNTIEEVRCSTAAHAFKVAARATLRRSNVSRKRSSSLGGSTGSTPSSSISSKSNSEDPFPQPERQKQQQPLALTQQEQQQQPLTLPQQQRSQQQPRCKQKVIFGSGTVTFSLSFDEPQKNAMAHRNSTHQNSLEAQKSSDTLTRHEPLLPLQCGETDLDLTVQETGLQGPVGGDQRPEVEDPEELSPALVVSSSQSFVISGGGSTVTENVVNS
Assay: Luciferase reporter assay in CHO cells (ET8-5-5) transfected with human Ca2+ receptor
Assay type: cell-based
Settings: CHO ET8-5-5 cells
Protocol: The activities of the compounds of the present invention on calcium receptors were measured in accordance with the method described hereinbelow.
Human Ca^2+ receptor cDNA was subcloned into the mammalian expression vector PECE as described in Ellis, L et al. (1986) Cell vol. 45, 721-732. The luciferase reporter was subcloned into the mammalian expression vector pGL3basic (Promega). Resistance to neomycin (pSV2-neo) and resistance to puromycin (pSG5-puro) were used as selection markers. All these plasmids were simultaneously transfected into CHO cells by calcium phosphate precipitation. Transfected cells were grown in F12 medium containing 7.5% foetal bovine serum, 100 U/ml penicillin and 100 μg/ml streptomycin (as 1% Pen-Strep, BioWithaker), neomycin (750 μg/ml) and puromycin (5 μg/ml). Neomycin and puromycin resistant colonies were subcloned and assayed for activation against a range of calcium concentration. Clone 8-5-5 was used to assess the effects of compounds on [Ca^2+]i. This stably transfected cell line was termed ET8-5-5.
For measurements of [Ca^2+]i, the cells were recovered from tissue culture flasks by brief treatment with Trypsin-EDTA (Invitrogen; containing 0.53 mM EDTA.4Na in HBSS) and then seeded in culture-treated 96-well plates (Greiner) at 50 k cells per well in the growth media (same as above, except neomycin 400 μg/ml). Cells were grown in 37° C. TC incubator for 24 h. The culture medium was then removed and replaced with F12 medium, 1% Pen-Strep for an overnight foetal bovine serum starvation in 37° C. TC incubator. Then the starvation medium was removed and replaced with a test buffer (20 mM HEPES pH 7.4, 125 mM NaCl, 5 mM KCl, 1 mM MgCl2, 5.5 mM Glucose, 2 g/l lysosyme and 0.3 mM CaCl2) supplemented with a range of test compound concentrations crossed against a super-added range of CaCl2 concentrations. The cells were incubated with the test compounds for 5 h in 37° C. TC incubator. Then the test buffer was discarded, and cells were added with the substrate for Luciferase from SteadyLite Kit (Perkin-Elmer). The luminescence was recorded.

`O=C(NCCC(c1ccccc1)c1ccccc1)Nc1ccccn1` [Example 35, 1-(3,3-diphenyl-propyl)-3-pyridin-2-yl-urea] was tested, and the pEC50 was ≥ 5.00.
For `C[C@@H]1CNCCN1C(=O)CCCN(CCC(c1ccccc1)c1ccccc1)C(=O)Nc1nc(-c2ccccc2)cs1` [Example 91, (R)-1-(3,3-diphenylpropyl)-1-(4-(2-methylpiperazin-1-yl)-4-oxobutyl)-3-(4-phenylthiazol-2-yl)urea], the pEC50 was ≥ 5.00.
With `O=C(CCCN(CCC(c1ccccc1)c1ccccc1)C(=O)Nc1nc2ccccc2s1)N1CCCCC1` [Example 105, 3-(benzo[d]thiazol-2-yl)-1-(3,3-diphenylpropyl)-1-(4-oxo-4-(piperidin-1-yl)butyl)urea] the pEC50 was ≥ 5.00.
`O=C(NCCC(c1ccccc1)c1ccccc1)Nc1ccccc1Sc1ccccc1` [Example 32, 1-(3,3-diphenyl-propyl)-3-(2-phenylsulphanyl-phenyl)-urea] was tested, and the pEC50 was ≥ 5.00.
With `CS(=O)(=O)c1ccc(-c2csc(NC(=O)N(CCC(=O)O)CCC(c3ccccc3)c3ccccc3)n2)cc1` [Example 119, 3-(1-(3,3-diphenylpropyl)-3-(4-(4-(methylsulfonyl)phenyl)thiazol-2-yl)ureido)propanoic acid] the pEC50 was ≥ 5.00.
With `C[C@H]1CNCCN1C(=O)CCCN(CCC(c1ccccc1)c1ccccc1)C(=O)Nc1nc(-c2ccccc2)cs1` [Example 100, (S)-1-(3,3-diphenylpropyl)-1-(4-(2-methylpiperazin-1-yl)-4-oxobutyl)-3-(4-phenylthiazol-2-yl)urea] the pEC50 was ≥ 5.00.
For `CS(=O)(=O)Nc1ccc(-c2csc(NC(=O)N(CCCC(N)=O)CCC(c3ccccc3)c3ccccc3)n2)cc1` [Example 68, 1-(4-amino-4-oxobutyl)-1-(3,3-diphenylpropyl)-3-(4-(4-(methylsulfonamido)phenyl)thiazol-2-yl)urea], the pEC50 was ≥ 5.00.
With `O=C(O)CCCN(CCC(c1ccccc1)c1ccccc1)C(=O)Nc1nc(-c2ccccc2)c(Cl)s1` [Example 83, 4-(3-(5-chloro-4-phenylthiazol-2-yl)-1-(3,3-diphenylpropyl)ureido)butanoic acid] the pEC50 was ≥ 5.00.
In the case of `NC(=O)CCCN(CCC(c1ccccc1)c1ccccc1)C(=O)Nc1nc2ccccc2s1` [Example 80, 1-(4-amino-4-oxobutyl)-3-(benzo[d]thiazol-2-yl)-1-(3,3-diphenylpropyl)urea], the pEC50 was ≥ 5.00.
For `CC(=O)Nc1ccc(S(=O)(=O)NCCN(CCC(c2ccccc2)c2ccccc2)C(=O)Nc2nc3ccccc3s2)cc1` [Example 170, N-(4-{2-[3-Benzothiazol-2-yl-1-(3,3-diphenylpropyl)-ureido]-ethylsulfamoyl}-phenyl)acetamide], the pEC50 was ≥ 5.00.
In the case of `CS(=O)(=O)c1ccc(-c2nc(NC(=O)N(CCCC(=O)O)CCC(c3ccccc3)c3ccccc3)sc2Cl)cc1` [Example 72, 4-(3-(5-chloro-4-(4-(methylsulfonyl)phenyl)thiazol-2-yl)-1-(3,3-diphenylpropyl)ureido)butanoic acid], the pEC50 was ≥ 5.00.
`O=C(NCCC(c1ccccc1)c1ccccc1)Nc1ccc2ccccc2n1` [Example 27, 1-(3,3-dipehnyl-propyl)-3-quinolin-2-yl-urea] was tested, and the pEC50 was ≥ 5.00.
`CS(=O)(=O)NCCN(CCC(c1ccccc1)c1ccccc1)C(=O)Nc1nc(-c2ccc(NS(C)(=O)=O)cc2)c(Cl)s1` [Example 139, 3-(5-chloro-4-(4-(methylsulfonamido)phenyl)thiazol-2-yl)-1-(3,3-diphenylpropyl)-1-(2-(methylsulfonamido)ethyl)urea] was tested, and the pEC50 was ≥ 5.00.
In the case of `CC(CN(CCC(c1ccccc1)c1ccccc1)C(=O)Nc1nc(-c2ccccc2)cs1)C(=O)O` (stereo not drawn) [Example 69, 3-(1-(3,3-diphenylpropyl)-3-(4-phenylthiazol-2-yl)ureido)-2-methylpropanoic acid], the pEC50 was ≥ 5.00.
`O=C(CCCN(CCC(c1ccccc1)c1ccccc1)C(=O)Nc1nc(-c2ccccc2)cs1)N[C@@H]1CCCNC1` [Example 76, (R)-1-(3,3-diphenylpropyl)-1-(4-oxo-4-(piperidin-3-ylamino)butyl)-3-(4-phenylthiazol-2-yl)urea] was tested, and the pEC50 was ≥ 5.00.
